# According to publication PMC5048167:
# Sequences of proteins named here, by UniProt entry; tags and fusion partners are left off.
# UniProt P9WIA1: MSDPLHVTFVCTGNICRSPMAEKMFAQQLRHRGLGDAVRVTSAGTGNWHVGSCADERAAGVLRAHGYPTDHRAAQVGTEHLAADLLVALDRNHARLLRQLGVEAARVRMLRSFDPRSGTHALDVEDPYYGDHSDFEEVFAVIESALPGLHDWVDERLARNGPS
# Results are given in words; binding and its absence hold for the method and conditions named. Binding seen in cells or lysates may run through a third protein. Some binding calls cover weakened binding; strength is not graded here. Sequences can lack the tags named with a protein.
# Molecular target: T1, Myc-tagged full-length (FL) TRIM27 (UniProt P14373)
# T1 sequence: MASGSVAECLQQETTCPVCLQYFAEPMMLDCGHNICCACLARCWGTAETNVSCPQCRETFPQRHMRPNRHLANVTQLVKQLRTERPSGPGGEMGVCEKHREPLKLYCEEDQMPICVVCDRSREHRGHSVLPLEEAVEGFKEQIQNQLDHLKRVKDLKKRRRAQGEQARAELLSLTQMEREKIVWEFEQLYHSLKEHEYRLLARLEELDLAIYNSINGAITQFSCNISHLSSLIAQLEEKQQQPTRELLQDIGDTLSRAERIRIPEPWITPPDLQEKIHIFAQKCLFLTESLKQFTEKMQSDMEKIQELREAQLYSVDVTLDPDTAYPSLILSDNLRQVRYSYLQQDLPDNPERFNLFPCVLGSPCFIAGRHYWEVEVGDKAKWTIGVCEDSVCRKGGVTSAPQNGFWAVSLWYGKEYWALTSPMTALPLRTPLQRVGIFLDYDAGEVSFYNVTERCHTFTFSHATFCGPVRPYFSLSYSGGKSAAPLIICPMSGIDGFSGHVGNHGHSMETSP
# Test: co-IP
substance,measurement,value
Flag-tagged Mtb PtpA (from UniProt P9WIA1 1-163) (enzyme),binding,binds
